Reference: article PMC2423471
No constants are given. Whether binding was seen depends on the method and setting. For part of these data: In cells and extracts the contact can be indirect. Some entries that bind do so weakly or less than the wild type.

Protein sequences, listed by entry. Tags and fused reporters are not part of them. Lines headed by an entry give the natural chain unless they say otherwise; changes in a name come on top. Chains listed by the source or under a name are the forms on record and can include a tag or linker.
UniProt P22314: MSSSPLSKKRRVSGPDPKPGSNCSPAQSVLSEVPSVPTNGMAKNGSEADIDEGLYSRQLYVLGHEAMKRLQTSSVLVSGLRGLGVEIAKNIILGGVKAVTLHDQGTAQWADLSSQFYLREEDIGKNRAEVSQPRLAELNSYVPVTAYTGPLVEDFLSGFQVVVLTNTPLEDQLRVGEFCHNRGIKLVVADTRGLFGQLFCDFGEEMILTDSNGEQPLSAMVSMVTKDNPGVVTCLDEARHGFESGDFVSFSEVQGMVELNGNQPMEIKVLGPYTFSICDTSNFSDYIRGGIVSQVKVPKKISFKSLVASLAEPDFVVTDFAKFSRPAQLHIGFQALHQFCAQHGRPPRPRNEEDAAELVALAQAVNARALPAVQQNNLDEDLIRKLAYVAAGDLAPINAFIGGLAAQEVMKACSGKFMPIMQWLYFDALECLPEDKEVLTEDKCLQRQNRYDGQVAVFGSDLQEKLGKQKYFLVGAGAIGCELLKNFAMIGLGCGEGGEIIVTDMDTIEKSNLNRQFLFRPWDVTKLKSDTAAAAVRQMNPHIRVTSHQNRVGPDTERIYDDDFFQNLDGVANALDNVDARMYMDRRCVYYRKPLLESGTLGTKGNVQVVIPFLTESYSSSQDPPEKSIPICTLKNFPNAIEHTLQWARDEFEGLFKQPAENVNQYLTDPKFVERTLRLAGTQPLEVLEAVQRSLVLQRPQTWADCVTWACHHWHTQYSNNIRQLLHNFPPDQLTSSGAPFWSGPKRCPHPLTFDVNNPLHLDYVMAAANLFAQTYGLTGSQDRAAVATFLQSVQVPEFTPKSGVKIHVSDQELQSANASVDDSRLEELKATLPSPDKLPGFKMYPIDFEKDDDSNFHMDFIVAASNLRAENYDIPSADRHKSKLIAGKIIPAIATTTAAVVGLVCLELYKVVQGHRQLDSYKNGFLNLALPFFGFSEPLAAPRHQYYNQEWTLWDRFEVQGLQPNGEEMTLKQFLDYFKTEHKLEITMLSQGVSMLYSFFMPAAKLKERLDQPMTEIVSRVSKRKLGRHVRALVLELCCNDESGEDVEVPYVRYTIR
FLAG-tagged HuISG15 (P05161, form named): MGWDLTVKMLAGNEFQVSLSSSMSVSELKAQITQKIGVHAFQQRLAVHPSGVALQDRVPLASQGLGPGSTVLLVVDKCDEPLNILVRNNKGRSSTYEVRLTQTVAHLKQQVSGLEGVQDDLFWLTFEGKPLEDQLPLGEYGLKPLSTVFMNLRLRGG
UniProt P61088: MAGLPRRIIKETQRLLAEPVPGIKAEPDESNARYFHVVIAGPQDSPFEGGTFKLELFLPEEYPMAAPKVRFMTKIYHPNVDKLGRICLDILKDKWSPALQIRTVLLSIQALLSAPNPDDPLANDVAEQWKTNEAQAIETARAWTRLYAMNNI
UniProt Q9NPD8: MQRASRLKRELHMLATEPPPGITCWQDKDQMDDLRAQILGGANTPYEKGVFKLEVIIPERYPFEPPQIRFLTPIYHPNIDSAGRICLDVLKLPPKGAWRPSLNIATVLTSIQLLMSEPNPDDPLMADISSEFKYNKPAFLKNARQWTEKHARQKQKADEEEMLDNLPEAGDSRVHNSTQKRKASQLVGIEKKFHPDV

How the values were obtained:
[1] = biological target: HuUbE1 (purified recombinant) (human) (UniProt P22314); experiment: in vitro thiolester formation, non-reducing SDS-PAGE; 2.5 µM UbcH8, 200 nM UbE1 or UbE1L, 7.5 µM mature Hu- or AgmISG15; 50 mM HEPES pH 8.0, 100 mM NaCl, 1 mM Mg-ATP, 45 min at 37°C; covalent E1-ISG15 thiolester band on non-reducing SDS-PAGE, disrupted by β-ME; both purified
[2] = biological target: FLAG-tagged HuISG15 (human) (UniProt P05161); experiment: co-IP; as the co-immunoprecipitation of Figure 3, but samples obtained in a more concentrated way (Figure S2b); anti-FLAG affinity gel, anti-V5 blot

Row | Substance | binding [1] | binding [2]
1 | mature HuISG15 (purified recombinant) (from UniProt P05161 1-157) | no binding (tested: 7.5 µM HuISG15, 200 nM UbE1) | –
2 | V5-tagged UbcH13 (from UniProt P61088 1-152) (enzyme) | – | binds weakly
3 | V5-tagged UbcH17 (from UniProt Q9NPD8 1-197) (enzyme) | – | binds weakly
